According to the supplement of paper PMC11006884:
The targets with a hit were mostly taken out for another list; the other results follow. The data scatter; read single values as rough. Only a part is listed here, and it is no random draw.

Amino acid sequences for entries named in this document (tags omitted). A change or cut given only in a name is not applied to a line headed by its entry.
UniProt P52429: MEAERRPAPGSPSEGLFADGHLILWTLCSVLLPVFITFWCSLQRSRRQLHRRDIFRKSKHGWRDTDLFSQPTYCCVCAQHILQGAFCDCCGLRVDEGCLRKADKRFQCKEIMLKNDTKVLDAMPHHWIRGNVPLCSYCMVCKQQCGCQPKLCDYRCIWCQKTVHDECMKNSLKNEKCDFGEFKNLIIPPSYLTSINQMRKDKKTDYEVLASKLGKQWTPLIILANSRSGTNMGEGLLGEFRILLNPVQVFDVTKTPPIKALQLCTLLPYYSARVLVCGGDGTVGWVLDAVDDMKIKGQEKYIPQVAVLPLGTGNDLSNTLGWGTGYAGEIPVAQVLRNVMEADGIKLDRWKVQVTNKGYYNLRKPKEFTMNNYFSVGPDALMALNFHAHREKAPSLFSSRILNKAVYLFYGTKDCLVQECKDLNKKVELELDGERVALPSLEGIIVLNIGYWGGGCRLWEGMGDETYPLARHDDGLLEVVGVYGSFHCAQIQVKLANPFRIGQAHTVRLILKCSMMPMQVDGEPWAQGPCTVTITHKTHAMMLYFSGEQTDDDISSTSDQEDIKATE
UniProt P53041: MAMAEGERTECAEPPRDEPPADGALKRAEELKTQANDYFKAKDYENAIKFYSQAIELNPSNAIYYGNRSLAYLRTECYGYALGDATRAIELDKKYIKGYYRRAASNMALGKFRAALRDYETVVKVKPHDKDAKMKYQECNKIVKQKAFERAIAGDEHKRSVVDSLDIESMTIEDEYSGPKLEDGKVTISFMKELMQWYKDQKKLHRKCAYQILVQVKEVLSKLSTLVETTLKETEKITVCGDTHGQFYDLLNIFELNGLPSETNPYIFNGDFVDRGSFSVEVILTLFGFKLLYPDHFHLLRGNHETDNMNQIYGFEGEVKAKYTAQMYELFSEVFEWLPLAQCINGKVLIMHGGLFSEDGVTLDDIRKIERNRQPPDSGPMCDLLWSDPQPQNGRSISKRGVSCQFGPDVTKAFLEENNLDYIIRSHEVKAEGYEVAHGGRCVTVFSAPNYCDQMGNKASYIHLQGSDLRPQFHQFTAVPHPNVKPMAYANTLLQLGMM
UniProt P53350, whole entry, looked up: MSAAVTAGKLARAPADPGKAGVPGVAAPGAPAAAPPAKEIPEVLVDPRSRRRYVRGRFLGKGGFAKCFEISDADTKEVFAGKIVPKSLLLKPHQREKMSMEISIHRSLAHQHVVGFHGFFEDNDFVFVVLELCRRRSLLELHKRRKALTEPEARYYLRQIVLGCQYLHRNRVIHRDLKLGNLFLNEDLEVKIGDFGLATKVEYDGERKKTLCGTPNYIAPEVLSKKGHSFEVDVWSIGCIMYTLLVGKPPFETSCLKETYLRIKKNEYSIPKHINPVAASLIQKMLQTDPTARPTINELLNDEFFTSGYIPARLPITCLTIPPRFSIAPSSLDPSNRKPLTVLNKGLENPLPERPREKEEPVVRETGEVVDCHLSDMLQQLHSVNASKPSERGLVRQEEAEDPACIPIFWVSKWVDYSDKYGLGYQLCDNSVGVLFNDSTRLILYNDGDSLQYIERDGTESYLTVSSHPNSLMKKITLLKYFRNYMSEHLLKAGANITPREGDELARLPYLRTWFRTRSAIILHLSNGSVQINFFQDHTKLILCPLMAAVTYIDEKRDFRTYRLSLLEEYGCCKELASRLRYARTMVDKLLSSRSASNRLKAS
UniProt P52209: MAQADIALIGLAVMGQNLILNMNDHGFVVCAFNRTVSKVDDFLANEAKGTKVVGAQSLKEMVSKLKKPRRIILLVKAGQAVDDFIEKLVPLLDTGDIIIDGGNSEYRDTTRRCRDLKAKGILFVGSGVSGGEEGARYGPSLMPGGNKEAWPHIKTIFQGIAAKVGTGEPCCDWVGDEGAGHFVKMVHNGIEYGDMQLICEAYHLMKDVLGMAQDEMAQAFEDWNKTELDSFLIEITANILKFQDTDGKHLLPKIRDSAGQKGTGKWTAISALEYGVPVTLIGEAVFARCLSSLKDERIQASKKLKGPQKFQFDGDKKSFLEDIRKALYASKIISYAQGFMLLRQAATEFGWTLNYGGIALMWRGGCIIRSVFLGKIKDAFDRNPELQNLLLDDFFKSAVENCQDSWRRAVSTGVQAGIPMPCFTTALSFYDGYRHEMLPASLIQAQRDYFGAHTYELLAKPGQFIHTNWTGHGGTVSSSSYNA
UniProt P51665: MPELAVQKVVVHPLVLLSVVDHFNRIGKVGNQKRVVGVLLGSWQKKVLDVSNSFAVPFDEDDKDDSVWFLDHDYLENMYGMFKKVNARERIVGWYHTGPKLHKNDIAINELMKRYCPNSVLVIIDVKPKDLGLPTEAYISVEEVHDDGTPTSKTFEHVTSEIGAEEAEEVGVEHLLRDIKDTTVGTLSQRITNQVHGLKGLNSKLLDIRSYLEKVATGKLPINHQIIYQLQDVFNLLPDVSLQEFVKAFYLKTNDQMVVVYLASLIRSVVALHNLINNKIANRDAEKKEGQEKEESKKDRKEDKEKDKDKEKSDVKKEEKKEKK
UniProt P54886: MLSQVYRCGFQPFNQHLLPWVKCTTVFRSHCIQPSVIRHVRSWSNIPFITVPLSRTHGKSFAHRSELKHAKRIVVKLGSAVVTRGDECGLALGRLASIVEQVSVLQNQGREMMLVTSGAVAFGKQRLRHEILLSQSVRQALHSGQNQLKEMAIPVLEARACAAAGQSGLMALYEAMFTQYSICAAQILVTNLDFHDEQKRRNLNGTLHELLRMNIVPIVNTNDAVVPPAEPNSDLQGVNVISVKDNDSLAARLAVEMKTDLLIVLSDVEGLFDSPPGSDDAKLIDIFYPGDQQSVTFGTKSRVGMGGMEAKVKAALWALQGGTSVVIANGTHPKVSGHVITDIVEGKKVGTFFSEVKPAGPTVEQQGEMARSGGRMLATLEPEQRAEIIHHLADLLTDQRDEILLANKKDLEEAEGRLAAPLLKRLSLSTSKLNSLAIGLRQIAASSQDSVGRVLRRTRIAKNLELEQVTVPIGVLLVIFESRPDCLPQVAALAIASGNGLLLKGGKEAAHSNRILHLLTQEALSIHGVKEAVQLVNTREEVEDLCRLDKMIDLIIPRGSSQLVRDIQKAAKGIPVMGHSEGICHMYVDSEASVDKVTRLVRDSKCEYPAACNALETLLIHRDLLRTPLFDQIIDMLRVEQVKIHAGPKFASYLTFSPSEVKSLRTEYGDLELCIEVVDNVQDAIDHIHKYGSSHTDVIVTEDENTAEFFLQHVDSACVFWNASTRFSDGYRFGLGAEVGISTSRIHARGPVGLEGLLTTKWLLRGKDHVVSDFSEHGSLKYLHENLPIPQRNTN
UniProt P52597: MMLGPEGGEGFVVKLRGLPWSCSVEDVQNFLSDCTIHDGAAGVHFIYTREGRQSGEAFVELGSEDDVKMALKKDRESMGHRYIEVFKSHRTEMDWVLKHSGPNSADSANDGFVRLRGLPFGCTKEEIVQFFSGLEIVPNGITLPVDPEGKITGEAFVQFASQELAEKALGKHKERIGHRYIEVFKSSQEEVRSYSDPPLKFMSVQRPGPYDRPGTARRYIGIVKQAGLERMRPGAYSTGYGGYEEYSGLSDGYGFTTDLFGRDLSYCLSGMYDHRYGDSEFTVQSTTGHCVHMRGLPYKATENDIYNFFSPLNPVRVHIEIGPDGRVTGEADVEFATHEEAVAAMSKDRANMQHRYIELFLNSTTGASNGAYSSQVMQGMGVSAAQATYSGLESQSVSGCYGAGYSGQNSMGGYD
UniProt P52564: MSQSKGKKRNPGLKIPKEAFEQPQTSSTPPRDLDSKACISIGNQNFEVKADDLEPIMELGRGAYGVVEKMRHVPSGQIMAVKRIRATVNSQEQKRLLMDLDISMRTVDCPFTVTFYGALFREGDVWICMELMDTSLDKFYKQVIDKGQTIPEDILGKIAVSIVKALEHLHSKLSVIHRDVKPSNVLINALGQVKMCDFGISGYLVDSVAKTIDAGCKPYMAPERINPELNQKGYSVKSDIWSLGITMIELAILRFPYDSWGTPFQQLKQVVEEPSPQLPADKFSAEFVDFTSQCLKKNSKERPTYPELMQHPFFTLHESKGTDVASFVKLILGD
UniProt P55196: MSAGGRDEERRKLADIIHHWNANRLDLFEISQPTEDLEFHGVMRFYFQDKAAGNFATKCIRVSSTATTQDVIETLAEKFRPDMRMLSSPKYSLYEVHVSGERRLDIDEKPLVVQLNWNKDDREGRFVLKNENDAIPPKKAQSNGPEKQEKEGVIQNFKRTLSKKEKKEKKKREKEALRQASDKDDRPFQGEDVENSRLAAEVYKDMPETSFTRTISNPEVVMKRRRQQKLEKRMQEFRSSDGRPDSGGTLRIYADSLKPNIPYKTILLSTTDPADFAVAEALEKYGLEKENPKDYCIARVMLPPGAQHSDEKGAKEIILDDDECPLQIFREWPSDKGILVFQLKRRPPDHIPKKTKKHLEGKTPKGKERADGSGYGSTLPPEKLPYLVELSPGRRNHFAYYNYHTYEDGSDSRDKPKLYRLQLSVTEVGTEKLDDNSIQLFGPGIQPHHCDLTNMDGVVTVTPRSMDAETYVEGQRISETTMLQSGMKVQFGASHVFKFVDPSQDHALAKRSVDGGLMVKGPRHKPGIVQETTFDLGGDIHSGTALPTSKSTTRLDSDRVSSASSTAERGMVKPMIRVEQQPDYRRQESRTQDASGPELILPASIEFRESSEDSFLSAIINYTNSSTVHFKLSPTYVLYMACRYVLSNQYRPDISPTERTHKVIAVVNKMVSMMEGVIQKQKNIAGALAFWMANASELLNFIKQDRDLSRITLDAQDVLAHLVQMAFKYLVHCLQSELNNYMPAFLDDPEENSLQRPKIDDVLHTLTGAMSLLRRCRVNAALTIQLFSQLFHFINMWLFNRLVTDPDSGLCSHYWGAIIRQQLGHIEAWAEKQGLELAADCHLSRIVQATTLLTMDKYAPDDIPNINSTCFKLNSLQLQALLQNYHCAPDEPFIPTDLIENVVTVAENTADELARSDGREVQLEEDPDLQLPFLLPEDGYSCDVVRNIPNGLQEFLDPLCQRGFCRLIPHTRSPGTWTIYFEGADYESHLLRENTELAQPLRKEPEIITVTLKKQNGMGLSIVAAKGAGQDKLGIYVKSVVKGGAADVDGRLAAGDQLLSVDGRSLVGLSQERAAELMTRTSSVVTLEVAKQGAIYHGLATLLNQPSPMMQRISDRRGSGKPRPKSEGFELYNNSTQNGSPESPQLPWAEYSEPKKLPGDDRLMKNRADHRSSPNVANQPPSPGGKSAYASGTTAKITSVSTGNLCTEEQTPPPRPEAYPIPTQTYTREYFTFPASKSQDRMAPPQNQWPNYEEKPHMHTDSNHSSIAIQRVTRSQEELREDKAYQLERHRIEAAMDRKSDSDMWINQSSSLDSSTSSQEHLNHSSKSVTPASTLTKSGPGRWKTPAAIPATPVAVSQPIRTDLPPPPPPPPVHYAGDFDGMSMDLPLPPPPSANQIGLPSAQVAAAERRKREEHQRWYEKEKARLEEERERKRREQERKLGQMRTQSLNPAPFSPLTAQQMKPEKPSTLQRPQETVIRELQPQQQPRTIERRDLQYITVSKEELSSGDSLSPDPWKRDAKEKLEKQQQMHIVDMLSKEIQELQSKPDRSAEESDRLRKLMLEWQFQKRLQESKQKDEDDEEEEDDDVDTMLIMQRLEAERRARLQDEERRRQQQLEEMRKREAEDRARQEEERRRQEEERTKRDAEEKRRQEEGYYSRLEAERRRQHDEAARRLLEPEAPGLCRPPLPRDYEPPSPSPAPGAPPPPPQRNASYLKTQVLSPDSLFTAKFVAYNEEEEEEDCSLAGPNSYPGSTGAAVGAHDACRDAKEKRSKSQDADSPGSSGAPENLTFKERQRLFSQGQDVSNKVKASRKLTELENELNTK
UniProt P56589: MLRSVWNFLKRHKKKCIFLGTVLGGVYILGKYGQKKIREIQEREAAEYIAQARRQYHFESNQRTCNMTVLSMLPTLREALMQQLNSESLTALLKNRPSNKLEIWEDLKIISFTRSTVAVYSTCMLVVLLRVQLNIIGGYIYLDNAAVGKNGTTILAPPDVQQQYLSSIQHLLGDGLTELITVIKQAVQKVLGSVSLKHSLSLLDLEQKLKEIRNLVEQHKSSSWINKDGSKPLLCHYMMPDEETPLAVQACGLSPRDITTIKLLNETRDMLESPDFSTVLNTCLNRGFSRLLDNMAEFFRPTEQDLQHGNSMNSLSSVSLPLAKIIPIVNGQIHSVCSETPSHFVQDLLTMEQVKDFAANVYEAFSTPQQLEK
UniProt P51991: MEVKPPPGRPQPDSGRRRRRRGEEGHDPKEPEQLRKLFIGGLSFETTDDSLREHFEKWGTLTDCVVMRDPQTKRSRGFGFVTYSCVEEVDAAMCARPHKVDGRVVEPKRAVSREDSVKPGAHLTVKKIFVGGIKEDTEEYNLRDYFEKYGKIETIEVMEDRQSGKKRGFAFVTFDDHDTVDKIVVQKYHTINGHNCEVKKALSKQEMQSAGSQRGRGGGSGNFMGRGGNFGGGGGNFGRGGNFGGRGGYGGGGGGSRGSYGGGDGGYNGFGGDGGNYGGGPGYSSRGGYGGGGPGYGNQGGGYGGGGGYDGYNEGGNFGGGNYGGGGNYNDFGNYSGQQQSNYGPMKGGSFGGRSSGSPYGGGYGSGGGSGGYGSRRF

The targets below were run with COC(=O)/C=C/c1ccccc1 [methyl cinnamate] (assay: log2 ratio of iodoacetamide-alkyne labeling of the cysteine site, DMSO over compound (competition); higher = stronger covalent engagement of the cysteine by the compound, active = 1 or more). Conditions: 500 µM; treatment time 1 h; system: HEK293T cell lysate.
Method in brief: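 HEK293T lysate (2 mg/mL) was treated with DMSO or electrophile (500 µM, 1 h, ambient temperature), then iodoacetamide alkyne (1 h), clicked to sCIP-TMT reagents, pooled, trypsin-digested overnight at 37 °C, streptavidin-enriched and acid-eluted. Peptides were run on Orbitrap Eclipse LC-MS/MS with FAIMS and quantified in FragPipe. The log2 competition ratio per cysteine is mean control-channel over mean compound-channel reporter intensity. Duplicate channels and three replicates were used, and cysteines quantified in only one replicate were excluded.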

log2 ratio of iodoacetamide-alkyne labeling, inactive:
DGKE C264 (UniProt P52429) 0.19, DSTN C135 (UniProt P60981) 0.213, BLM C361 (UniProt P54132) 0.461, CMC4 C12 (UniProt P56277) 0.649, MSH6 C1158 (UniProt P52701) 0.0384, AK2 C40 (UniProt P54819) 0.00613, UniProt P60709_C272 -0.114, PPP5C C452 (UniProt P53041) 0.128, CSE1L C85 (UniProt P55060) 0.0512, UniProt P61981_C97 0.377, SEC24C C886 (UniProt P53992) -0.395, PLK1 C372 (UniProt P53350) 0.0821, NAP1L1 C258 (UniProt P55209) 0.0297, KIF11 C773 (UniProt P52732) 0.356, AK2 C42 (UniProt P54819) 0.105, PPP5C C11 (UniProt P53041) 0.311, PGD C170 (UniProt P52209) 0.0438, CSE1L C387 (UniProt P55060) 0.159, PSMD7 C116 (UniProt P51665) 0.174, ALDH18A1 C88 (UniProt P54886) 0.22, UniProt P60763_C157 0.144, HNRNPF C122 (UniProt P52597) -0.135, LAMB2 C47 (UniProt P55268) 0.216, UniProt P61081_C47 0.134, NUBP1 C8 (UniProt P53384) 0.318, UniProt P62241_C182 0.29, CASP7 C7 (UniProt P55210) 0.217, RPS3A C139 (UniProt P61247) 0.194, UniProt P59998_C21 0.346, UniProt P52564_C38 0.188, NUBP1 C22 (UniProt P53384) 0.38, PPP5C C404 (UniProt P53041) 0.0703, UniProt P55196_C942 0.24, SUCLG1 C181 (UniProt P53597) 0.3, PEX3 C65 (UniProt P56589) 0.36, HNRNPA3 C94 (UniProt P51991) -0.0834, UniProt P61163_C222 0.078
